The values below come from PMC3044754.

No constants are given. Whether binding was seen depends on the method and setting. In cells and extracts the contact can be indirect. For some of these results: Binding calls can cover weak binding; strength is not graded here.

The target of experiment [1] is GFP-tagged WT1 (pGFP-WT1) (UniProt P19544). Kind of experiment: co-IP; human podocytes co-transfected for 48 h with Flag-tagged PINCH1 constructs and GFP-tagged WT1 constructs; lysates immunoprecipitated with anti-GFP overnight at 4°C, protein A/G Plus-Agarose, blotted with anti-Flag.
Experiment [2] addresses GFP-tagged WT1-CT, C-terminal fragment of WT1 (280-429 aa) (UniProt P19544). The experiment is described as above.
In experiment [3] the target is GFP-tagged WT1-NT, N-terminal fragment of WT1 (1-315 aa) (UniProt P19544). The description is as above.
The target of another experiment is GST-WT1 fusion protein (UniProt P19544). The experiment is described as follows: pull-down; purified GST-WT1 on glutathione-agarose beads incubated with podocyte lysate overnight at 4°C; washed three times with lysis buffer; blotted with anti-PINCH1; only the target purified.

As to “Flag-tagged wild-type PINCH1 (pFlag-PINCH1-wt) (from UniProt P48059 1-325)”, the binding entry in experiment [1] is recorded as “binds”; in experiment [2], “binds”; in experiment [3], “no binding”.
Turning to “endogenous PINCH1 (from UniProt P48059 1-325)”, the binding result with GST-WT1 fusion protein is “binds”.
